In this assay the target is T1, SC-35 (Serine/arginine-rich splicing factor 2) (human (endogenous in HEK293T)) (UniProt Q01130).
T1 sequence: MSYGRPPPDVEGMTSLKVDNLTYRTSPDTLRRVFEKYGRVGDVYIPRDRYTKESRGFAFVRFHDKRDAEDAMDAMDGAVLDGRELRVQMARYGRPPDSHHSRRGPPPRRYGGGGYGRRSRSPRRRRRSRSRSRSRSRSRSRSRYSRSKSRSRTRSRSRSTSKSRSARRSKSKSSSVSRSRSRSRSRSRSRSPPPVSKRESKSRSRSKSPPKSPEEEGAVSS
In words: co-IP; HEK293T cells crosslinked with 0.75% formaldehyde; sonicated nuclear lysate without RNase inhibitor; 6 µg anti-target IgG overnight at 4 °C, protein A/G magnetic beads; low-salt (150 mM NaCl) and high-salt (500 mM NaCl) washes; Western blot.

Protein sequences, listed by entry. Tags and fused reporters are not part of them.
UniProt O15047: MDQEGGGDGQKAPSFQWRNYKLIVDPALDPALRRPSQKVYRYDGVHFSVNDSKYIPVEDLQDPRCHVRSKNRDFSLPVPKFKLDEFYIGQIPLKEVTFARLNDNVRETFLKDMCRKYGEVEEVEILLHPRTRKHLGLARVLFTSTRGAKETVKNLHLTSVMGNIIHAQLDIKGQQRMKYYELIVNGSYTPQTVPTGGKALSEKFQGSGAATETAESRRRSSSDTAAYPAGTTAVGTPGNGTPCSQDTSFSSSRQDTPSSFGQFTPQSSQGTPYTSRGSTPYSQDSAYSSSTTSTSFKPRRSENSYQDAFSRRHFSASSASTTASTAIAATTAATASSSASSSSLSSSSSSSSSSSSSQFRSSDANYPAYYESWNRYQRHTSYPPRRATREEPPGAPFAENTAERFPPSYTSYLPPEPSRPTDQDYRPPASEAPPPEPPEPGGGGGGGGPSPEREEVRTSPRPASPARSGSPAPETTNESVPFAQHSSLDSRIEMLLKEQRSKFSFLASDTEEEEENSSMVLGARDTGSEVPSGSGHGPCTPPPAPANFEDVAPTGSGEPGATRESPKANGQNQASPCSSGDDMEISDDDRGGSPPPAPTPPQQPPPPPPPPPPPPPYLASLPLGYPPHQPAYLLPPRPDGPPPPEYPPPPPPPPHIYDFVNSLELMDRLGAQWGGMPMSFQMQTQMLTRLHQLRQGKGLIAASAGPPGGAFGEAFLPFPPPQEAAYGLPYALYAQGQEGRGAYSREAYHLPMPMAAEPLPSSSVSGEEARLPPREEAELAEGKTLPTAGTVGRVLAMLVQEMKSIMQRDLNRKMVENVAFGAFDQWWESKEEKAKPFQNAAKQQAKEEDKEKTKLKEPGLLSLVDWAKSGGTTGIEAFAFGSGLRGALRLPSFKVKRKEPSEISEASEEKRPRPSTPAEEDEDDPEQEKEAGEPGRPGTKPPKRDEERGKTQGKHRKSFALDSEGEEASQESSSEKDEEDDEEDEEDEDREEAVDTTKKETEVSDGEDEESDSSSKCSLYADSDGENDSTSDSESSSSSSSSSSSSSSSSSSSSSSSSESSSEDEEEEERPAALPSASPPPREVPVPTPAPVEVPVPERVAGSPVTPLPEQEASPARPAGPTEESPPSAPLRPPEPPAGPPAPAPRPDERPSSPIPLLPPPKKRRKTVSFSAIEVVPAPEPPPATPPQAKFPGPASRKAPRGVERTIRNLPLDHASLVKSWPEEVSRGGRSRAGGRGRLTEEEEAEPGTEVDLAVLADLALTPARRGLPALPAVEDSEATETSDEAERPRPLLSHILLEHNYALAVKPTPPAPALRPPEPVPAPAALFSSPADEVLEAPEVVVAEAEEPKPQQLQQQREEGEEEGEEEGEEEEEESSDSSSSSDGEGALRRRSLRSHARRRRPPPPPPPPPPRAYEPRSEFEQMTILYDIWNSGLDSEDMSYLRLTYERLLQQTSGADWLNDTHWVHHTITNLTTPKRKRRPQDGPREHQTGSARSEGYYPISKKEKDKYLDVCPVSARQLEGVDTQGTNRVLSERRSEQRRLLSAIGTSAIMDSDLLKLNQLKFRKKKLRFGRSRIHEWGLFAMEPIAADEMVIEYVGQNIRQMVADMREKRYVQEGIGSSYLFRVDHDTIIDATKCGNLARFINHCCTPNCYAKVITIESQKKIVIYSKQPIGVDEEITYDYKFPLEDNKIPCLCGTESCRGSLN

Results are given in words; binding and its absence hold for the method and conditions named. In cells and extracts the contact can be indirect. Some binding calls cover weakened binding; strength is not graded here.

Consider “SETD1A (KMT2F), histone-lysine N-methyltransferase (from UniProt O15047 1-1707)”, for which the binding result was “binds”.

B1: PSPC1 (Paraspeckle component 1) (protein, UniProt Q8WXF1 1-523)
chain: MMLRGNLKQVRIEKNPARLRALESAVGESEPAAAAAMALALAGEPAPPAPAPPEDHPDEEMGFTIDIKSFLKPGEKTYTQRCRLFVGNLPTDITEEDFKRLFERYGEPSEVFINRDRGFGFIRLESRTLAEIAKAELDGTILKSRPLRIRFATHGAALTVKNLSPVVSNELLEQAFSQFGPVEKAVVVVDDRGRATGKGFVEFAAKPPARKALERCGDGAFLLTTTPRPVIVEPMEQFDDEDGLPEKLMQKTQQYHKEREQPPRFAQPGTFEFEYASRWKALDEMEKQQREQVDRNIREAKEKLEAEMEAARHEHQLMLMRQDLMRRQEELRRLEELRNQELQKRKQIQLRHEEEHRRREEEMIRHREQEELRRQQEGFKPNYMENREQEMRMGDMGPRGAINMGDAFSPAPAGNQGPPPMMGMNMNNRATIPGPPMGPGPAMGPEGAANMGTPMMPDNGAVHNDRFPQGPPSQMGSPMGSRTGSETPQAPMSGVGPVSGGPGGFGRGSQGGNFEGPNKRRRY
In the case of B1, the binding result was “binds”.

The values are drawn from publication PMC10671326, “In Vivo and In Vitro Characterization of the RNA Binding Capacity of SETD1A (KMT2F)”.
